The values below come from US10030050 (dated 2018).

Ends that are not written are not given here.

This data set is described as follows: general procedure: Fmoc solid-phase peptide synthesis; chloro trityl chloride resin (CTL resin, Nova Biochem Cat No. 01-64-0021); HoBt/Bop/DIEA. The note with it: whole synthesis; for crude yield: scale of the general procedure 700 mg resin.

“ACIHTLSLLC (cysteine pairing not given here)” registered a crude yield of 83.2%.
Substance SPVEFLR showed a crude mass of 0.80 g and a crude yield of 88.8%.
ITLQEIIRT: the crude yield was 86.4%.
